Results from the supplement of paper PMC12823440, “Inhibitors supercharge kinase turnover through native proteolytic circuits” (Nature, 2025).
Counter-ions that a name gives are not always drawn. This is one part of the list. The calls rarely recur for the same compound in another form.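 Kinases were expressed as nanoluciferase fusions in K562 cells and luminescence was read every 4 h between 2 and 18 h as percent of control, DMSO set to 100% and a positive control to 0%. A time point counts as decreased when the signal drops significantly (2 sigma). The hit call is the authors' own, does not follow from the count of time points alone, and its rule is not shown.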

Protein sequences, listed by entry. Tags and fused reporters are not part of them. Lines headed by an entry give the natural chain unless they say otherwise; changes in a name come on top.
UniProt Q9BUB5: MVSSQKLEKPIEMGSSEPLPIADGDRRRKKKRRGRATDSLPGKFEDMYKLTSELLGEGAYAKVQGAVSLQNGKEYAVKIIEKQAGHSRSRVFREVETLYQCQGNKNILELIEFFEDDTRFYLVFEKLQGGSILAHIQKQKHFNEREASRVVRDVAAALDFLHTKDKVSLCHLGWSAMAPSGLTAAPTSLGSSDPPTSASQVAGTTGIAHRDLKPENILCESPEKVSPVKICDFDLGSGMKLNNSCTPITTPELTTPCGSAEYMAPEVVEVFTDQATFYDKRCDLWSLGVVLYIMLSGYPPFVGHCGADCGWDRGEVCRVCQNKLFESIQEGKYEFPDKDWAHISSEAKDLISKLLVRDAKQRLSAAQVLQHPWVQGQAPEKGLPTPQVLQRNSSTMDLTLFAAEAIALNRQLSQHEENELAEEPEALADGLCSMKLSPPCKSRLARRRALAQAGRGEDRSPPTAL
UniProt Q16620, whole entry, looked up: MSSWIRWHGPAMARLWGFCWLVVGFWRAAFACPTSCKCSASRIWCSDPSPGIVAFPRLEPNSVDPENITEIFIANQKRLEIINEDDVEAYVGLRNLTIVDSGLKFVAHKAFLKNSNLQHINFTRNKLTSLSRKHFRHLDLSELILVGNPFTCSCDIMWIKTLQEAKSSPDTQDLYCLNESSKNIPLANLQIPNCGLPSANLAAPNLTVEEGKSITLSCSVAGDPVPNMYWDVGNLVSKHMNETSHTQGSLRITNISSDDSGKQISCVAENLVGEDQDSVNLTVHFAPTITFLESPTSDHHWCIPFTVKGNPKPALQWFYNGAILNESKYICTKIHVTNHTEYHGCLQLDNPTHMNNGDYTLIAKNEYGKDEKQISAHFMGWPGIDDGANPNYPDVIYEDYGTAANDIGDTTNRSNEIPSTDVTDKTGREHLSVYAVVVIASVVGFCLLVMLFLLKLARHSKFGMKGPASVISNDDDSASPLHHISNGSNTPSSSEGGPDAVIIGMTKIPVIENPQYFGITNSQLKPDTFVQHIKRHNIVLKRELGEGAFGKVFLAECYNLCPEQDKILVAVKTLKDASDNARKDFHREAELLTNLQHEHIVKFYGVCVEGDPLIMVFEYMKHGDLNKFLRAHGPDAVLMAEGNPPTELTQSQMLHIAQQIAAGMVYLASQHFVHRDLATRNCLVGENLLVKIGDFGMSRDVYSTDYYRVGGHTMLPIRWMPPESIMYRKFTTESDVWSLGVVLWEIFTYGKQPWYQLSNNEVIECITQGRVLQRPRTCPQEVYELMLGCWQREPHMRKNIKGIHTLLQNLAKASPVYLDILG

molecular target: MKNK1 (UniProt Q9BUB5); test: number of time points (of 5) at which kinase-Nluc abundance scored as decreased, DMSO-normalised (count); higher = more persistent destabilization; settings: K562; 2-18 h

| SMILES | number of time points |
| --- | --- |
| CCc1c[nH]c2ncnc(N3CC[C@](N)(CNC(=O)c4ccc(F)cc4F)C3)c12 (10 µM) | 0 |
| Nc1ncnc2c1nc(Br)n2[C@@H]1O[C@@H]2COP(=O)(O)O[C@H]2[C@H]1O [8-Bromo-cAMP sodium salt] (10 µM) | 0 |
| CC(C)n1c(=O)n(C)c2cnc3cc(F)c(-c4ccc(OCCCN5CCCCC5)nc4)cc3c21 (10 µM) | 0 |
| Cc1ccc(C)c(OCCn2cc(C(=O)O)c3ccccc32)c1 (10 µM) | 0 |
| COCCOc1ccc2c(c1)ncn2-c1ccc2cccc(N3CCC(N)CC3)c2n1 (10 µM) | 4 |
| CC(C)=CCC/C(C)=C/CC/C(C)=C/C=C/C(C)=C/C(=O)O [Peretinoin] (10 µM) | 0 |
| C=CC(=O)N1CC[C@@H](Oc2nc(Nc3ccc(N4CCC(N5CCN(C)CC5)CC4)cc3)c(C(N)=O)nc2CC)C1 [Naquotinib (mesylate)] (2.5 µM) | 0 |
| CC(Sc1nc2c(cnn2-c2cccc(Cl)c2)c(=O)[nH]1)C(N)=O (stereo not drawn) (10 µM) | 0 |
| Cc1cc(O)c2c(c1)C(=O)c1cccc(O)c1C2=O [Chrysophanol] (2 µM) | 0 |
| O=C1OC(/C=C/c2ccccc2)=NC/1=C\c1cccnc1 (10 µM) | 0 |

molecular target: NTRK2 (UniProt Q16620); test: as above; settings: K562; 2-18 h

| SMILES | number of time points |
| --- | --- |
| CN1CCN(c2cc(-c3ccncc3)c(-c3ccc4ccccc4c3)nn2)CC1 (10 µM) | 0 |
| CC(O)(C#Cc1ccc2c(c1)N(c1nc(N)ncc1Cl)CC2)c1nccs1 (stereo not drawn) (2.5 µM) | 0 |
| COc1ccc(Nc2ncc(C(F)(F)F)c(NC3CC3)n2)cc1OC (10 µM) | 1 |
| O=c1cc(N2CCOCC2)oc2c(-c3ccc4c(c3)OCCO4)csc12 (2.5 µM) | 0 |
| N[C@@H]1CCCN(c2c(/C=C3\SC(=O)NC3=O)cccc2-c2ccccc2)C1 (10 µM) | 0 |
| N#Cc1ccc(-c2cnc3[nH]cc(NC(=O)c4cccnc4)c3c2)cc1 (10 µM) | 0 |
| COc1ccc(Br)cc1NC(=O)Nc1cccc2c1ccn2Cc1ccnc(N)c1 (2.5 µM) | 0 |
| COc1cc(N2CCOCC2)ccc1Nc1ncc(F)c(Nc2ccccc2NS(C)(=O)=O)n1 (10 µM) | 0 |
| COc1ccc(-c2cc(=O)c3c(OC)cc(OC)c(OC)c3o2)cc1 [6-Demethoxytangeretin] (10 µM) | 0 |
| COc1cc2c(cc1O)C[C@H]1c3cc(O)c(OC)cc3CC[N@@+]1(C)C2 [Phellodendrine] (10 µM) | 0 |
| CO[C@H]1C[C@@H]2CC[C@@H](C)[C@@](O)(O2)C(=O)C(=O)N2CCCC[C@H]2C(=O)O[C@H]([C@H](C)C[C@@H]2CC[C@@H](OC(=O)C(C)(CO)CO)[C@H](OC)C2)CC(=O)[C@H](C)/C=C(\C)[C@@H](O)[C@@H](OC)C(=O)[C@H](C)C[C@H](C)/C=C/C=C/C=C/1C [Temsirolimus] (2.5 µM) | 0 |
| O=C(ON=C1c2ccccc2-c2nc3ccccc3nc21)c1ccco1 (2.5 µM) | 0 |
| COc1ccc(S(=O)(=O)Nc2cc(-c3c(O)ccc4ccccc34)c(O)c3ccccc23)cc1 (10 µM) | 0 |
| Cc1cccc(COc2cccc(/C=C3\C(=O)NN(c4ccccc4)C3=O)c2)c1 (10 µM) | 0 |
| CC(C)Oc1ccc(F)c(-c2cnc(N)c(C(=O)Nc3cnccc3N3CCC[C@@H](C(=O)O)C3)n2)c1 (2 µM) | 0 |
| COc1cc(F)ccc1-c1ncnc(Nc2cccc(C[S@](C)(=N)=O)c2)n1 [Atuveciclib] (2.5 µM) | 0 |
| CC(C)n1ncnc1-c1cn2c(n1)-c1ccc(O[C@@H](C)C(N)=O)cc1OCC2 (10 µM) | 0 |
| Cn1c(CNc2cccc(C(=O)NCc3ccccc3C(F)(F)F)c2)nnc1-c1ccncc1 (10 µM) | 0 |
| O=Nc1c(-c2c(O)[nH]c3cc(Br)ccc23)[nH]c2ccccc12 [GSK 3 Inhibitor IX] (2.5 µM) | 4 |
| Nc1ncc(C(=O)NC2CN(C(=O)C3CC3)C2)c2ccc(-c3cccc(F)c3)nc12 (2 µM) | 0 |
| O=C(Nc1cc(Cl)cc2c1[nH]c1cnccc12)c1cccnc1 (10 µM) | 0 |
| c1ccc(Cn2c(-c3ccc(OC[C@H](C4CCNCC4)n4c(-c5ccccc5)nc5ccccc54)cc3)nc3ccccc32)cc1 [Deltarasin] (2.5 µM) | 0 |
| COc1cc2ncnc(Nc3cccc(I)c3)c2cc1OC (2.5 µM) | 0 |

Two entries drawn at random from those above, as already listed:

| SMILES | number of time points |
| --- | --- |
| COc1ccc(Br)cc1NC(=O)Nc1cccc2c1ccn2Cc1ccnc(N)c1 (2.5 µM) | 0 |
| COc1cc(N2CCOCC2)ccc1Nc1ncc(F)c(Nc2ccccc2NS(C)(=O)=O)n1 (10 µM) | 0 |
